From US20200131274A1
No constants are given. Whether binding was seen depends on the method and setting. Some entries that bind do so weakly or less than the wild type.

Legend:
[1] = molecular target: cynomolgus PSMA, full-length, on CHO cells (cynomolgus); assay: FMAT Mirrorball direct cell binding, purified His-tagged VH titrated on CHO cells expressing cynomolgus PSMA, FL2 median binding signal [panel cynoPSMA-CHO binding]
[2] = molecular target: cynomolgus PSMA, full-length, on CHO cells (cynomolgus); assay: FMAT direct binding on CHO cells expressing cynomolgus PSMA, purified VH kept 0-8 days at 40 °C before the assay, FL2 median mean fluorescence

binding [1] | binding [2] | Binder
binds | binds | single VH domain antibody 2.1 (VHH) VHH: EVQLVESGGGVVQPGRSLRLSCAASGFSFSGYGMHWVRQAPGKGLEWVAYISYDGSNKYYADSVKGRFTISRDNSKNTLYLQMNSLRAEDTAVYYCAKDPAWGLRLGESSSYDFDIWGQGTMVTVSS
binds |  | 2.10 (VHH) VHH: EVQLVESGGGVVQPGRSLRLSCAASGFTFSGYGMHWVRQAPGKGLEWVAYISYDGSNRYYADSVKGRFTISRDNSKKTLSLQMNSLRAEDTAVYYCAKDPAWGLRLGESSSYDFDIWGQGTMVTVSS
binds |  | single VH domain antibody 3.1 (VHH) VHH: EVQLVESGGGVVQPGRSLRLSCAASGFPLISYGMHWVRQAPGKGLEWVAFMTYDGSNRYYADSVKGRFTISRDNSKNTLYLQMNSLRDEDTALYYCARDRIVGGRVPDAFDIWGQGTMVTVSS
